## Library screening results

Measurements from “University of Dundee, Small-Polar-MMV Screening Library” (2021), ChEMBL document CHEMBL3988442.

Each number is a percent effect as filed. The record does not define 0% and 100%; most values in the screen are far below 50% and negative numbers occur (in some assays of this library far below -100). This is an unselected part of the compounds tested. Two or more numbers in one place are separate tests of the same structure; such repeats can differ widely.

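Viability assay of Plasmodium falciparum sporozoites; the read-out is not stated. The concentration is filed as 10 mM, unlikely as a test dose, so the dose is not known. Higher reads as lower viability (inferred: compounds with an IC50 in retests scored well above the rest). Strong results were mostly tested again. Of about 34,000 compounds tested this way, about 280 (0.84%) reached 50% or more in at least one test.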

SMILES | effect
NC(=O)c1cc(C2CCCN(C(=O)CCc3ccccn3)C2)n[nH]1 (stereo unspecified) | 2.148%
CC(C(=O)Nc1ccc(N2CCCC2)nc1)n1cccn1 (stereo unspecified) | -566.7%
Cc1ccccc1C1(C(=O)N2CCCC(n3cncn3)C2)CC1 (stereo unspecified) | -10.81%
[H][C@@]12CCC(=O)N(c3ccccc3)[C@]1([H])CCN2C(=O)c1ccco1 | -2.691%
[H][C@@]12CCN(C(C)=O)C[C@]1(C(=O)NCc1cnc(C)cn1)CCO2 | 4.781%
Cc1nn(C)c(C)c1C1CCCN1C(=O)c1ccc(Cl)o1 (stereo unspecified) | -3.382%
CN1CCN(c2ccc(NS(=O)(=O)c3ccc(Cl)s3)cc2C(=O)O)CC1 | -2.775%
O=C(NCC(=O)N1CCCc2ccccc21)c1c(O)cc(F)cc1F | -7.993%
Cc1cnn(CC2CCCN2C(=O)c2cccc(-n3cnnn3)c2)c1 (stereo unspecified) | -3.372%
Cc1cc(NC(=O)CN2CCOC(Cn3cccn3)C2)n(C)n1 (stereo unspecified) | -12.72%
O=C(O)C(F)(F)F.[H][C@@]12COC[C@H](C(=O)N3CCCCO3)[C@]1([H])CN(Cc1c(C)noc1C)C2 | -16.72%
Cc1nn(C)c(N(C)C)c1CNC1CCc2c(F)cccc21.Cl (stereo unspecified) | 4.617%
O=C(O)C(F)(F)F.[H][C@@]12CCN(C(=O)c3ccsc3)[C@]1([H])CCC(=O)N2Cc1ccncc1 | 11.11%
Cc1n[nH]c(=O)c2c(NC(=O)CN3CCC(O)CC3)oc(C)c12 | -21.01% & 49.44% & -24.35%
Cl.Cl.Cn1cc(C(=O)NCc2cncc3c2CCNC3)cn1 | 6.582%
Cc1cccc(C(=O)N2CC[C@]3(C[C@H](OCc4ccccn4)CO3)C2)c1.O=C(O)C(F)(F)F | 11.08%
CCOCC(O)CN1CCN(C(=O)c2ccc(OC)cc2F)CC1 (stereo unspecified) | -11.94%
CCc1nnsc1C(=O)N1CCCN(Cc2cnn(C)c2)CC1 | 1.85%
CCn1cc(C(=O)NCCN2CCCc3ccccc32)c(C)n1 | 2.682%
Cc1noc(CN(Cc2cccc(C#N)c2)Cc2ccco2)n1 | -15.6% & -21.23%
COCCN1CCN(S(=O)(=O)c2ccccc2)Cc2cccnc21.O=C(O)C(F)(F)F | -1.733%
CCn1ccnc1CN1CCCC(CO)(Cc2cccc(Cl)c2)C1 (stereo unspecified) | 9.227%
[H][C@]12CCCC(=O)N[C@@]1(C)CCCCN2C(=O)CCn1nccc1C | -2.799%
CC(C)N(C)Cc1cc(=O)n2c(n1)CN(S(=O)(=O)C1CC1)CCC2.O=C(O)C(F)(F)F | 3.682%
Cc1csc(N2CCCN(C(=O)C3(C#N)CCCCC3)CC2)n1 | -4.946%
O=C(O)C(F)(F)F.[H][C@]12CCN(Cc3cccc(C#N)c3)C[C@@]1([H])OCCN(c1ncccn1)C2 | 5.429%
COc1cccc(S(=O)(=O)N2C[C@H](OC)[C@]3(CCCO3)C2)c1 | 15.86%
CSC(CNS(C)(=O)=O)c1cccc(Cl)c1 (stereo unspecified) | -0.9143%
CSCCC(C)NC(=O)N1CCSC(C)(C)C1 (stereo unspecified) | 1.669%
CC(C)(C)c1nc(CN2CCCC(Cn3cncn3)C2)no1 (stereo unspecified) | 1.848%
CC(C)c1nnc(CCC(=O)N2CCOC(c3cnccn3)C2)o1 (stereo unspecified) | -7.556%
CN(C)C(=O)N1Cc2ncn(C)c2C(COCC2CCOCC2)C1.O=C(O)C(F)(F)F (stereo unspecified) | 6.229%
[H][C@@]12CN(C(=O)c3cccc(C)n3)C[C@]1([H])OCCN2CCN1CCCC1 | -10.05%
CCOc1cc(/C=C/c2ncc(C(=O)O)s2)cc(Cl)c1OC | -10.5%
CCc1cnc(NCCCN2CCC(O)CC2)nc1 | -11.51%
CCN(Cc1nc2c(cnn2C)c(=O)[nH]1)Cc1ccccc1C | 9.265%
CCOC(=O)CN(C)C1CCc2ccccc21 (stereo unspecified) | 4.27%
O=C(O)C(F)(F)F.c1cnc(NC2COC3(CCN(Cc4nccs4)CC3)C2)cn1 (stereo unspecified) | 3.007%
O=C(O)C(F)(F)F.[H][C@@]12CCN(c3ncccn3)C[C@@]1([H])O[C@H](C(=O)NCCOC)C2 | 1.667%
COc1cccc2c1OCC(Cc1cc(C(N)=O)ccn1)C2 (stereo unspecified) | 4.834% & 1.633% & -3.523%
Cc1ccc(-c2nc(CNC(C)Cn3cccn3)cs2)o1 (stereo unspecified) | -1.504% & -30.08% & -19.04%
CCCn1c(C)c(CC(=O)N(C)CCOC)c2c1CC(C)(C)CC2=O | -9.815%
Cl.O=C(C1CCCCC1)N1CC2(CCNCC2)C1 | 0.8554%
Cc1ccc(NC2CCN(C(=O)CCCc3ccccn3)CC2)cc1 | -46.06% & -37.79% & 2.315%
CCN(CC)C(=O)NC(C)c1ccc(Oc2cccnc2)c(F)c1 (stereo unspecified) | -3.755%
CCC(=O)N1CCC(Cc2nccnc2Nc2ccccn2)CC1 | -17.43%
CCC(=O)NCc1cc(Br)ccc1OC(F)F | -7.082%
CN(C)[C@@H]1CCN(S(C)(=O)=O)[C@H]1Cc1ccccc1 | 11.44%
CCc1cc(C(=O)N2CCCC2c2nc(C)c(CC)c(O)n2)on1 (stereo unspecified) | 11.06%
Cc1cc(C)c(C(=O)N2CCOCC2c2c(C)nn(C)c2C)o1 (stereo unspecified) | 3.034%
CCCc1noc(CN(C)Cc2ccc3c(c2)OCO3)n1 | -3.552%
CC(=O)c1c(F)cccc1NCC(O)C(C)(C)C (stereo unspecified) | -3.542%
Cc1csc2ncc(-c3ccnc(N4CCCC4)n3)c(=O)n12 | -12.96%
[H][C@@]12CCCO[C@]1([H])[C@@H](Oc1cccnc1)CN2C(=O)c1ccnnc1 | -12.63%
CCc1nnc2n1CCN(CC(=O)Nc1cc(C(C)(C)C)nn1C)C2 | -0.4946%
c1cc(-c2noc(CN3CCc4c(ncn4C4CC4)C3)n2)cs1 | 83.48% & 80.24%
CC(C)c1nc(CN2CCCN(Cc3nnc(C4CC4)o3)CC2)no1 | -17.65%
CCN(CCc1ccccc1)Cn1nc(C)c2c(C)onc2c1=O | 14.08%
Cc1cc(N2CCOC(c3ccccn3)C2)nc(N)n1 (stereo unspecified) | 3.337%
Cc1nn(C)c(C)c1CCn1cncc1-c1ccc2c(c1)CC(C)N2C.Cl (stereo unspecified) | 10.34%
Cc1ccc(NC(=O)c2cccc(N(C)C)c2)nc1 | -41.3% & -33.84%
CC(C)NC(=O)N1CCC2(CC(=O)N(c3cccc(C#N)c3)C2)C1 (stereo unspecified) | -10.18%
CC(C)Oc1ncccc1CNC(=O)N1CCC(C(N)=O)C1 (stereo unspecified) | -4.452%
COCCN(CCOC)Cc1c(C)nc2ccccc2c1O | 2.584%
CC(C)Cc1noc(-c2ccc(NCc3noc(C(C)C)n3)nc2)n1 | -13.21% & -15.87%
Cc1nc2c(c(C)c1CC(=O)NCc1ccco1)c(=O)[nH]n2C | -7.381%
[H][C@]12CC[C@]([H])(CN(S(=O)(=O)c3ccc(Cl)cc3Cl)C1)N(C)C2=O | -23.89%
O=C(O)C(F)(F)F.O=C(c1ccncc1F)N1CCc2ncnc(C3CC3)c2CC1 | 7.407%
CCc1nccn1CCC(=O)N1CCCC1c1cncc(NC)n1 (stereo unspecified) | -3.626%
Cc1cc(CCC(=O)Nc2nncs2)nc(C2CCCN2)n1.Cl (stereo unspecified) | 7.785%
Cc1ncc(CNC(=O)c2nn(C)c3c2CS(=O)(=O)CC3)s1 | 0%
COc1ccccc1CC(=O)N1CCC(NCc2c[nH]nc2C)CC1 | 4.428%
COc1ccnc(N2CCN(C(=O)c3csc(C(C)C)n3)CC2)n1 | -479.8%
O=C1N(CC2CC2)C(c2c[nH]nc2-c2cccnc2)NC12CCCC2 (stereo unspecified) | -3.842%
COc1cccc(CCC2CCCN(C(=O)c3n[nH]c4c3CCC4)C2)c1 (stereo unspecified) | -7.647%
COc1ccccc1CC(C)(C)NC(=O)CC(F)(F)F | 2.305%
Cc1noc(C)c1C(=O)NCC(c1cccc(F)c1)N(C)C (stereo unspecified) | -2.949%
Cc1ccc(CN(Cc2cccnc2)C2CC(C)(C)NC(C)(C)C2)s1.O=C(O)CC(O)(CC(=O)O)C(=O)O | 5.806%
CCn1ncc2c1C(COC)CN(Cc1ccco1)C2 (stereo unspecified) | 11.84%
O=C(CNC1CCc2ncnn2C1)N(C1=CCCCC1)C1CC1 (stereo unspecified) | 3.7%
CC(C)Nc1nc(N2CCCC2)nc2c1CCN(S(C)(=O)=O)CC2.O=C(O)C(F)(F)F.O=C(O)C(F)(F)F | 7.083% & -0.07728% & -8.41%
Cc1nn(C)c2c(NCc3ccccc3F)nc(C3CC3)nc12 | -5.889%
CC(C)Cc1nc(CS(=O)(=O)c2ccccc2)no1 | -2.331%
CC(C)c1cc(C(=O)N2CCCC2c2nc(-c3ccccc3)no2)[nH]n1 (stereo unspecified) | -4.929%
O=C(O)C(F)(F)F.O=C(O)C(F)(F)F.c1cncc(C2COC3(CCN(Cc4cccs4)CC3)C2)c1 (stereo unspecified) | -1.667%
COCCN1Cc2ccccc2C2(CCN(C(=O)c3ccno3)CC2)C1 | 17.54%
O=C(O)C(F)(F)F.[H][C@@]12CCN(c3ncc(F)cn3)[C@]1([H])CC[C@H](C(=O)NC1CC1)O2 | -5.016%
Cc1ccnc(NCCNC(=O)CCNC(=O)c2ccccc2F)c1 | 3.593% & 6.463%
CCCN(CCC)S(=O)(=O)N(C)Cc1ccncc1 | -1.001%
O=C(O)C(F)(F)F.[H][C@@]12CCN(C3CCOCC3)C[C@@]1([H])O[C@H](C(=O)N1CCOCC1)C2 | -1.842%

Repeated from the top, 7 entries:

NC(=O)c1cc(C2CCCN(C(=O)CCc3ccccn3)C2)n[nH]1 (stereo unspecified) read 2.148%.
CC(C(=O)Nc1ccc(N2CCCC2)nc1)n1cccn1 (stereo unspecified) read -566.7%.
Cc1ccccc1C1(C(=O)N2CCCC(n3cncn3)C2)CC1 (stereo unspecified) read -10.81%.
[H][C@@]12CCC(=O)N(c3ccccc3)[C@]1([H])CCN2C(=O)c1ccco1 read -2.691%.
[H][C@@]12CCN(C(C)=O)C[C@]1(C(=O)NCc1cnc(C)cn1)CCO2 read 4.781%.
Cc1nn(C)c(C)c1C1CCCN1C(=O)c1ccc(Cl)o1 (stereo unspecified) read -3.382%.
CN1CCN(c2ccc(NS(=O)(=O)c3ccc(Cl)s3)cc2C(=O)O)CC1 read -2.775%.